These are yes or no findings as the source states them, for the method shown. Binding calls can cover weak binding; strength is not graded here.
Experiments:
Settings in all cases: remark: other sources report otherwise
HLA-A*0301 (human) [1] = assay: peptide binding analysis (Table 1)
HLA-A*1101 (human) [2] = assay: peptide binding analysis (Table 1)
HLA-A*0301 (human) [3] = assay: cellular competition assay vs FL-labelled reference peptide on B cells; affinity category (high/good IC50<5 uM, intermediate 5-15 uM, low >15-50 uM)
HLA-A*1101 (human) [4] = assay: as above

Binder | binding (HLA-A*0301 (human) [1]) | binding (HLA-A*1101 (human) [2]) | binding (HLA-A*0301 (human) [3]) | binding (HLA-A*1101 (human) [4])
GFLHSGTAK [p53 112-120 …] | binds | binds | binds | binds
RTEEENLRK [p53 283-291 …] | – | – | – | binds
LGFLHSGTAK [p53 111-120 …] | binds | binds | – | –

The next lines start with the values.

binding (HLA-A*0301 (human) [1]) | binding (HLA-A*1101 (human) [2]) | binding (HLA-A*0301 (human) [3]) | binding (HLA-A*1101 (human) [4]) | Binder
– | – | binds | – | RAHSSHLKSK [p53 363-372 …]
– | – | binds | – | KGQSTSRHK [p53 373-381 …]

Source: patent publication US20150010586A1
